Test results published in PMC11986451.
Results are given in words; binding and its absence hold for the method and conditions named. In cells and extracts the contact can be indirect. Some results given as binding are weak or reduced against the parent protein; the word gives no strength.

Protein sequences, listed by entry. Tags and fused reporters are not part of them.
UniProt O43293: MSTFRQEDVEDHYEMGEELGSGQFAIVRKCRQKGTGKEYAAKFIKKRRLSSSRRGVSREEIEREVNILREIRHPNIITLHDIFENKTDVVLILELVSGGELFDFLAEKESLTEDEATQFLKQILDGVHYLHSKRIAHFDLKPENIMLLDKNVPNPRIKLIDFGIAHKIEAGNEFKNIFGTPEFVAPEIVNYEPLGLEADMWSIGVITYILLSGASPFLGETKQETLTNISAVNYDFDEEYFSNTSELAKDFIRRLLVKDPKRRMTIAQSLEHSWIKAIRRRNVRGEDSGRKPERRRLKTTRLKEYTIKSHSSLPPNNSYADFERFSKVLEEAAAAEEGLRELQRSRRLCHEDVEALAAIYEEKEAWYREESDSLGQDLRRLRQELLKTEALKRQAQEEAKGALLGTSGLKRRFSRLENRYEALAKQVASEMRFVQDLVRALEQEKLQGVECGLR
UniProt P42229: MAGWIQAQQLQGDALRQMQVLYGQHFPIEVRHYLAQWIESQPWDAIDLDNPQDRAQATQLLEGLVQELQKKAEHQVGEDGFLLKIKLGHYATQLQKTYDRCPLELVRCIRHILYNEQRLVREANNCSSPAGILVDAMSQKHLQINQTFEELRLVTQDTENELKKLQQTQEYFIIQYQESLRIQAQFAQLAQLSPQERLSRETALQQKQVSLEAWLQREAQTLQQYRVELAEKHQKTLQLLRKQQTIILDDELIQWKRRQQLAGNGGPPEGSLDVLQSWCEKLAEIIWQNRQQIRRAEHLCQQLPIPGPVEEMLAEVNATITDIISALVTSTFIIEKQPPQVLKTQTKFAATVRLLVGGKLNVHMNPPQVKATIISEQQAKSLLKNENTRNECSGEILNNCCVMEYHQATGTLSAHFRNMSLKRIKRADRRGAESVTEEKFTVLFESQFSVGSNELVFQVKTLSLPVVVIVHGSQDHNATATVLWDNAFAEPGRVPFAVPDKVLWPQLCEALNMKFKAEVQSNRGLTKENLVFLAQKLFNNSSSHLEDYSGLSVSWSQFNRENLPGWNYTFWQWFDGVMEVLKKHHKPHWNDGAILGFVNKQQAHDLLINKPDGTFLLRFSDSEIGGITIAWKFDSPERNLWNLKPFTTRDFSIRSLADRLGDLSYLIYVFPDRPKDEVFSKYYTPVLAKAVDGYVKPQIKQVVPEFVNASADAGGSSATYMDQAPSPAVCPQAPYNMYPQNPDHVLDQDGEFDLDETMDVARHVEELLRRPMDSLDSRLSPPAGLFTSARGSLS

Target: Zipper-interacting protein kinase (ZIPK) (human (endogenous in HUVEC)) (UniProt O43293)
Assay: co-IP; endogenous immunoprecipitation from HUVEC whole-cell lysates with anti-ZIPK or anti-STAT5A antibody, anti-IgG as negative control, protein A/G Dynabeads, 4°C overnight; western blot detection

binding: binds
Substance: signal transducer and activator of transcription 5A (STAT5A) (from UniProt P42229 1-794)
